# Results from the supplement of paper PMC12823440, “Inhibitors supercharge kinase turnover through native proteolytic circuits” (Nature, 2025).
# By UniProt entry, the sequences of proteins in these tests, tags left out. Where a name states a change or a piece, a line headed by the entry shows the natural chain unless it says otherwise.
# UniProt P11362, whole entry, looked up: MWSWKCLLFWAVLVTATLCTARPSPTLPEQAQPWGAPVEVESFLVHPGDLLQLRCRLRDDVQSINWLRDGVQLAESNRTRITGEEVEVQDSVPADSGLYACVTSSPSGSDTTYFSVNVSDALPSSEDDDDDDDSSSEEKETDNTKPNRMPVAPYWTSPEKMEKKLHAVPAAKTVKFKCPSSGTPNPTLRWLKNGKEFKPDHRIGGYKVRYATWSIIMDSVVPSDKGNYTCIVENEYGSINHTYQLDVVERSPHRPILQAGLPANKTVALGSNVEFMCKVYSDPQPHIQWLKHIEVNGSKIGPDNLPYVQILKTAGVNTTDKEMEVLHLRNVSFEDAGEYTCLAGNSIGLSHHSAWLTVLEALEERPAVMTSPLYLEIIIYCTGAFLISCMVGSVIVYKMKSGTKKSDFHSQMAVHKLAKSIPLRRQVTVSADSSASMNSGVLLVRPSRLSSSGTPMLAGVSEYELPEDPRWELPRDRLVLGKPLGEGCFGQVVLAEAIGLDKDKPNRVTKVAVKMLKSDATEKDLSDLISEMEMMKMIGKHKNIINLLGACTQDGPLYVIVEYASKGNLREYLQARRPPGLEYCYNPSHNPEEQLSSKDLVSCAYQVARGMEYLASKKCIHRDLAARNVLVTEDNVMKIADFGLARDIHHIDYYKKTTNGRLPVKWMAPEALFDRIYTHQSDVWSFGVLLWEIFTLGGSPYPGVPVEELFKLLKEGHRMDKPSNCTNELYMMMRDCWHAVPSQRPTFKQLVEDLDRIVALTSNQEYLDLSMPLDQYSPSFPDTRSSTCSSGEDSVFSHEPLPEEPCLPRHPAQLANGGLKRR
# UniProt P21802, whole entry, looked up: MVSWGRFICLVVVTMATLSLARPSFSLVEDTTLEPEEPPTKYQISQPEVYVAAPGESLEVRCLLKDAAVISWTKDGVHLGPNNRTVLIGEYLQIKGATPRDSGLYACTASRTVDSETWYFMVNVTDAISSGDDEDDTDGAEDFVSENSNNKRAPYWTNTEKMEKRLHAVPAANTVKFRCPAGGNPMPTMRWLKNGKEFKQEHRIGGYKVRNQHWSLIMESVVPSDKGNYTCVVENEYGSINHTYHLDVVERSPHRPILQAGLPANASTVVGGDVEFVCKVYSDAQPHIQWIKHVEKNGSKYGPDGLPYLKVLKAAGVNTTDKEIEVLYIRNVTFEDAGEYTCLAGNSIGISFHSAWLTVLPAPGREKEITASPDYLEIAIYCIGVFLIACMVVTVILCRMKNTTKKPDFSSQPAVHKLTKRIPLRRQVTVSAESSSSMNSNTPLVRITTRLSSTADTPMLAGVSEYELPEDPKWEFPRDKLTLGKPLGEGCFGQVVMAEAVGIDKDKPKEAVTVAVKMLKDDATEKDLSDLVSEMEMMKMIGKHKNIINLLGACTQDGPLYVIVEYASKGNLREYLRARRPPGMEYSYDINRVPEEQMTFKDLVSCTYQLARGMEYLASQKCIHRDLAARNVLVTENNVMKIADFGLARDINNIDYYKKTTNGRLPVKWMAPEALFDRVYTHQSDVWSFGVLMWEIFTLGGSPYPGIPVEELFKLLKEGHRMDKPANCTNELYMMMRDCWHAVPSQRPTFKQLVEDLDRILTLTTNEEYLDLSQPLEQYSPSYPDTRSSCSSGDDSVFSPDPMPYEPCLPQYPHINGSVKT
# UniProt P22607, whole entry, looked up: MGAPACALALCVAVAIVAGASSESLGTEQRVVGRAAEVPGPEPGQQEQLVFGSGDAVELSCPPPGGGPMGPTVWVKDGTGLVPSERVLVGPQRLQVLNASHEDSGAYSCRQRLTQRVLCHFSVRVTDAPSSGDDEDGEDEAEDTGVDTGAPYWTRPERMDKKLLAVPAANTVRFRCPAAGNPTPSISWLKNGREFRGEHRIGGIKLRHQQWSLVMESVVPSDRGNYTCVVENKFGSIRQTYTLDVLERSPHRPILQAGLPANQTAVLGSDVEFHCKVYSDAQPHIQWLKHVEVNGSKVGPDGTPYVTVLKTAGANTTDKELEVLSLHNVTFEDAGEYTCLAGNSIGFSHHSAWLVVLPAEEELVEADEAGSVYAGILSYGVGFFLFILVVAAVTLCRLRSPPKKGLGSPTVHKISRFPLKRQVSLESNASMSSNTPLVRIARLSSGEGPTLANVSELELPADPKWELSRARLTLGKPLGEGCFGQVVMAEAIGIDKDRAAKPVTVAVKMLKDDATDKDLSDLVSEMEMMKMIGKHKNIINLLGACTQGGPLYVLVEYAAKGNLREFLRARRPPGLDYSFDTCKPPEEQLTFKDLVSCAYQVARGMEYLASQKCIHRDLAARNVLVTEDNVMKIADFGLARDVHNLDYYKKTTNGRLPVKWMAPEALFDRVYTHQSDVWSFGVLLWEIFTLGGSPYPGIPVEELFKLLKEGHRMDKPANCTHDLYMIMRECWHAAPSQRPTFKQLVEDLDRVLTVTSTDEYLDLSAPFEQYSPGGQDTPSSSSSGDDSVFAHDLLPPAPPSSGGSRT
# UniProt P36888, whole entry: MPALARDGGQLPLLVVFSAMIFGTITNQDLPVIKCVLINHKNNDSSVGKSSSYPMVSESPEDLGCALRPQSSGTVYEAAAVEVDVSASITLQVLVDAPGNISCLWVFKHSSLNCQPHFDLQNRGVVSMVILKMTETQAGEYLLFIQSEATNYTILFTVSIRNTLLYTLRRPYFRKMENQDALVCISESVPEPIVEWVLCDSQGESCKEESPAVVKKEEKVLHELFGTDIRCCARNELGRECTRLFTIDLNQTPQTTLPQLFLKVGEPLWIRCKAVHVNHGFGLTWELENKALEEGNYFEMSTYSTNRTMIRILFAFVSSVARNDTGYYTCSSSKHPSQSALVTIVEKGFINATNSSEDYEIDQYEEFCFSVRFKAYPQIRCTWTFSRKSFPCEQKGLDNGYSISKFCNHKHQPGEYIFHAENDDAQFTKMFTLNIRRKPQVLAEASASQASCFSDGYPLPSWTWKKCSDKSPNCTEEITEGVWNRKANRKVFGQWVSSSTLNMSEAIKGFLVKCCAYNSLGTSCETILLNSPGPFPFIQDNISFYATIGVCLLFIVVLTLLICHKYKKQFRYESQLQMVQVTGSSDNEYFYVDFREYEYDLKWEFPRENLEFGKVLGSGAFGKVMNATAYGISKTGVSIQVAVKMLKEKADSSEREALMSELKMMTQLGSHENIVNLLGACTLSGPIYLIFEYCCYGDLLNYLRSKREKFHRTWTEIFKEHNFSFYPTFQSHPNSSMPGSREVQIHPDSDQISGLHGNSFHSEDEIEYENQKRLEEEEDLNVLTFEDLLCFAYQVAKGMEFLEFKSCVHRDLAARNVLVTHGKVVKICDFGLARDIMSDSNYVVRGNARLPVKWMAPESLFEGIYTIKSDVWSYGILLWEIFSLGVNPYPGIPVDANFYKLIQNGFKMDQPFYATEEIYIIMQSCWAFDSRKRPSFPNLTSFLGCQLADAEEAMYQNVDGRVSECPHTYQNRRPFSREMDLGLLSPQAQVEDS
# UniProt Q9Y616: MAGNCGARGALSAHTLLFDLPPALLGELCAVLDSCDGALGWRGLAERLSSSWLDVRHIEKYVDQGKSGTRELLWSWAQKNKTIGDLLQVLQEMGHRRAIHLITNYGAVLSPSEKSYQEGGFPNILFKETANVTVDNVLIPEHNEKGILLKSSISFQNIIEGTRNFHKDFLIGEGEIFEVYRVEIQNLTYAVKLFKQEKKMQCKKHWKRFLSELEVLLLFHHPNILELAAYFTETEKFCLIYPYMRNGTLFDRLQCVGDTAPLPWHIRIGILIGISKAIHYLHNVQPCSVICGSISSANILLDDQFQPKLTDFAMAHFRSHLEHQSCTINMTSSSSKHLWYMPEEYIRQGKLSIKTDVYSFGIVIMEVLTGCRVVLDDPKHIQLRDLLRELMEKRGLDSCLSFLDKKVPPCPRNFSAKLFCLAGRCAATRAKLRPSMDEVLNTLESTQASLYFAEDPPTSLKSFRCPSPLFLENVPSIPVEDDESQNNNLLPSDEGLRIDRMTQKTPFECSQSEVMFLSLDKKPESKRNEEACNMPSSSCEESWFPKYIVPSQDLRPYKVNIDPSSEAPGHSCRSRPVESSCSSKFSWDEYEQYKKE
# UniProt P06239: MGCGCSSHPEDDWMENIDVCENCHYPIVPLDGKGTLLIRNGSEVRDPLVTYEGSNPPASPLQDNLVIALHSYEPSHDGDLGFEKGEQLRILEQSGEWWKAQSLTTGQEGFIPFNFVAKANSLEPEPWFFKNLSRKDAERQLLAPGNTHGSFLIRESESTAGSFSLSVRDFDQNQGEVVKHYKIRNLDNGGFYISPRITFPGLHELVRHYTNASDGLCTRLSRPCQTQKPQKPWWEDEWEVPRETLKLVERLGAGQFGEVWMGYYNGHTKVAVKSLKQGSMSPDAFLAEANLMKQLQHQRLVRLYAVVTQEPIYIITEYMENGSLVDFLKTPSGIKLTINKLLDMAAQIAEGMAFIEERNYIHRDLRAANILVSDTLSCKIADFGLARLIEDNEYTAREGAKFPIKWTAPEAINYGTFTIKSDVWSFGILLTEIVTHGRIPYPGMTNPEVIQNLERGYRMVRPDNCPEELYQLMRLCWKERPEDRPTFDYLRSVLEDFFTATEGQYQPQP
# UniProt P53671: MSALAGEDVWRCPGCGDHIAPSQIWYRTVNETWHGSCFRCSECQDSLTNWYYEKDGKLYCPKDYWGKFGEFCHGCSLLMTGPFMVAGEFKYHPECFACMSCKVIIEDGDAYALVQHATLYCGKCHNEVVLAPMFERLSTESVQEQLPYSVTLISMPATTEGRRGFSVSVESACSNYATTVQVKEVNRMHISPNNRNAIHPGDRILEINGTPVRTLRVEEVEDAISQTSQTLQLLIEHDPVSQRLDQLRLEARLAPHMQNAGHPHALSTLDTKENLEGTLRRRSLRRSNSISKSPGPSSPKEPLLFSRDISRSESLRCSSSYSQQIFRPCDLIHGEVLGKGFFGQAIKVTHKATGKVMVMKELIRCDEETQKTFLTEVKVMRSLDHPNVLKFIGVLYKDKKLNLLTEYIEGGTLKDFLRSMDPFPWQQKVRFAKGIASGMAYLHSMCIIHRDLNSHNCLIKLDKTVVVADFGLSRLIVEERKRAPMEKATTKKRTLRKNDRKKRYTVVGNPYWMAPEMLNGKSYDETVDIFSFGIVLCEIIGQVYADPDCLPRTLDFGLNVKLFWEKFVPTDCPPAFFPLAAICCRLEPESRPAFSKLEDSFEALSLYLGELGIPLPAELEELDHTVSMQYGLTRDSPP
# UniProt P07948: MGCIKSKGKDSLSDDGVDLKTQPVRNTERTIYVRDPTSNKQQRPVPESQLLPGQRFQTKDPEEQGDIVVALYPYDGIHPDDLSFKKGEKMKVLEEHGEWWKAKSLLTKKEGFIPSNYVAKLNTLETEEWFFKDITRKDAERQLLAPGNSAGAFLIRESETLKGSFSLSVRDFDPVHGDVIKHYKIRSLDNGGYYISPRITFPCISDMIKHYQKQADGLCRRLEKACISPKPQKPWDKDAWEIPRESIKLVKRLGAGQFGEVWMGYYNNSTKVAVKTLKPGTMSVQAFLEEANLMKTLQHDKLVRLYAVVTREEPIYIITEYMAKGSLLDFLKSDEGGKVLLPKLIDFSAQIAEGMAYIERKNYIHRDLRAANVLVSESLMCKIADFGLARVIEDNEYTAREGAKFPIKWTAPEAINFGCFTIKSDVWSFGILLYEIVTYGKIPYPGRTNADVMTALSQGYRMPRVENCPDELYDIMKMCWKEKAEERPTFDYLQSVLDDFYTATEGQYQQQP
# UniProt Q12851: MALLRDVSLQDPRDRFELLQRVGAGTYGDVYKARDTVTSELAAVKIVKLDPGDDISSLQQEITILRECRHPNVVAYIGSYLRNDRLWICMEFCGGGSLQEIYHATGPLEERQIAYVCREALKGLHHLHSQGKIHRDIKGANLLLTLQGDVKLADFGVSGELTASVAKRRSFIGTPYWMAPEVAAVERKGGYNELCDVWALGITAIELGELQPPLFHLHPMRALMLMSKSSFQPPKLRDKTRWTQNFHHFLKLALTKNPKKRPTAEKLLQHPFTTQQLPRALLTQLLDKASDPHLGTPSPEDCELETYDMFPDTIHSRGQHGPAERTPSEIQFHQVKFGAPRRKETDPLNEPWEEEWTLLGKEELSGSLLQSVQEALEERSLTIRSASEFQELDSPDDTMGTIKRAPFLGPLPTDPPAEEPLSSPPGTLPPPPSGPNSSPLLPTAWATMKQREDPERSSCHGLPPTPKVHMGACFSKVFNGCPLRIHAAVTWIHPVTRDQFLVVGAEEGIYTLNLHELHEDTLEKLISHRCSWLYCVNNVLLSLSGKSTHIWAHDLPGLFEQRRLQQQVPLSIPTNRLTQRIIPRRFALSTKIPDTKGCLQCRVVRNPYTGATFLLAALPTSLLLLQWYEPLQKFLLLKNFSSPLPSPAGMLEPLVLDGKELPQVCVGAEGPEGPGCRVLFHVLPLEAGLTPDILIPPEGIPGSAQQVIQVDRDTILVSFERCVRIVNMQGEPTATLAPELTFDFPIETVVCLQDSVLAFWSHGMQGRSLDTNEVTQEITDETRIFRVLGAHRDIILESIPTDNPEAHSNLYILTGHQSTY
# Where a name gives a salt, the structure may show the parent alone. This is one part of the list. The calls rarely recur for the same compound in another form.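 Kinases, fused to nanoluciferase, were expressed in K562 cells; luminescence was measured every 4 h from 2 to 18 h as percent of control (DMSO = 100%, positive control = 0%). A time point is decreased if signal falls significantly (2 sigma). Hits were called by the authors by a rule that is not shown; the count of time points alone does not decide it.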
# Tests used:
# Assay in all cases: kinase-Nluc reporter destabilization hit call (1 = scored as downregulated) (binary); higher = compound decreases kinase abundance
# Settings in all cases: K562, 2-18 h
# ERN1 = ERN1 (UniProt O75460)
# FGFR1 = FGFR1 (UniProt P11362)
# FGFR2 = FGFR2 (UniProt P21802)
# FGFR3 = FGFR3 (UniProt P22607)
# FGR = FGR (UniProt P09769)
# FLT3 = FLT3 (UniProt P36888)
# FYN = FYN (UniProt P06241)
# GSK3A = GSK3A (UniProt P49840)
# HER2 = HER2 (UniProt P04626)
# INSRR = INSRR (UniProt P14616)
# IRAK3 = IRAK3 (UniProt Q9Y616)
# JAK1 = JAK1 (UniProt P23458)
# LCK = LCK (UniProt P06239)
# LIMK1 = LIMK1 (UniProt P53667)
# LIMK2 = LIMK2 (UniProt P53671)
# LMTK2 = LMTK2 (UniProt Q8IWU2)
# LYN = LYN (UniProt P07948)
# MAP2K1 = MAP2K1 (UniProt Q02750)
# MAP2K2 = MAP2K2 (UniProt P36507)
# MAP4K2 = MAP4K2 (UniProt Q12851)
SMILES,kinase-Nluc reporter destabilization hit call (ERN1; 10 µM),kinase-Nluc reporter destabilization hit call (FGFR1; 10 µM),kinase-Nluc reporter destabilization hit call (FGFR2; 10 µM),kinase-Nluc reporter destabilization hit call (FGFR3; 10 µM),kinase-Nluc reporter destabilization hit call (FGR; 10 µM),kinase-Nluc reporter destabilization hit call (FLT3; 10 µM),kinase-Nluc reporter destabilization hit call (FYN; 10 µM),kinase-Nluc reporter destabilization hit call (GSK3A; 10 µM),kinase-Nluc reporter destabilization hit call (HER2; 10 µM),kinase-Nluc reporter destabilization hit call (INSRR; 10 µM),kinase-Nluc reporter destabilization hit call (IRAK3; 10 µM),kinase-Nluc reporter destabilization hit call (JAK1; 10 µM),kinase-Nluc reporter destabilization hit call (LCK; 10 µM),kinase-Nluc reporter destabilization hit call (LIMK1; 10 µM),kinase-Nluc reporter destabilization hit call (LIMK2; 10 µM),kinase-Nluc reporter destabilization hit call (LMTK2; 10 µM),kinase-Nluc reporter destabilization hit call (LYN; 10 µM),kinase-Nluc reporter destabilization hit call (MAP2K1; 10 µM),kinase-Nluc reporter destabilization hit call (MAP2K2; 10 µM),kinase-Nluc reporter destabilization hit call (MAP4K2; 10 µM),kinase-Nluc reporter destabilization hit call (ERN1; 2.5 µM),kinase-Nluc reporter destabilization hit call (FGFR1; 2.5 µM),kinase-Nluc reporter destabilization hit call (FGFR2; 2.5 µM),kinase-Nluc reporter destabilization hit call (FGFR3; 2.5 µM),kinase-Nluc reporter destabilization hit call (FGR; 2.5 µM),kinase-Nluc reporter destabilization hit call (FLT3; 2.5 µM),kinase-Nluc reporter destabilization hit call (FYN; 2.5 µM),kinase-Nluc reporter destabilization hit call (GSK3A; 2.5 µM),kinase-Nluc reporter destabilization hit call (HER2; 2.5 µM),kinase-Nluc reporter destabilization hit call (INSRR; 2.5 µM),kinase-Nluc reporter destabilization hit call (IRAK3; 2.5 µM),kinase-Nluc reporter destabilization hit call (JAK1; 2.5 µM),kinase-Nluc reporter destabilization hit call (LCK; 2.5 µM),kinase-Nluc reporter destabilization hit call (LIMK1; 2.5 µM),kinase-Nluc reporter destabilization hit call (LIMK2; 2.5 µM),kinase-Nluc reporter destabilization hit call (LMTK2; 2.5 µM),kinase-Nluc reporter destabilization hit call (LYN; 2.5 µM),kinase-Nluc reporter destabilization hit call (MAP2K1; 2.5 µM),kinase-Nluc reporter destabilization hit call (MAP2K2; 2.5 µM),kinase-Nluc reporter destabilization hit call (MAP4K2; 2.5 µM)
COc1cc2c(cc1OC)-c1c(C)c3ccc(OC)c(OC)c3c[n+]1CC2 [Dehydrocorydaline],inactive: 0,inactive: 0,inactive: 0,inactive: 0,inactive: 0,inactive: 0,inactive: 0,inactive: 0,inactive: 0,inactive: 0,inactive: 0,inactive: 0,inactive: 0,inactive: 0,inactive: 0,inactive: 0,inactive: 0,inactive: 0,inactive: 0,inactive: 0,–,–,–,–,–,–,–,–,–,–,–,–,–,–,–,–,–,–,–,–
FC(F)(F)c1ccc(CNc2ccc(Cc3c[nH]c4ncc(Cl)cc34)cn2)cn1 [Pexidartinib (hydrochloride)],inactive: 0,inactive: 0,inactive: 0,inactive: 0,inactive: 0,inactive: 0,inactive: 0,inactive: 0,inactive: 0,inactive: 0,inactive: 0,inactive: 0,inactive: 0,inactive: 0,inactive: 0,inactive: 0,inactive: 0,inactive: 0,inactive: 0,inactive: 0,–,–,–,–,–,–,–,–,–,–,–,–,–,–,–,–,–,–,–,–
CCN(CC)CC(=O)Nc1c(C)cccc1C [Lidocaine (hydrochloride)],inactive: 0,inactive: 0,inactive: 0,inactive: 0,inactive: 0,inactive: 0,inactive: 0,inactive: 0,inactive: 0,inactive: 0,inactive: 0,inactive: 0,inactive: 0,inactive: 0,inactive: 0,inactive: 0,inactive: 0,inactive: 0,inactive: 0,inactive: 0,–,–,–,–,–,–,–,–,–,–,–,–,–,–,–,–,–,–,–,–
CCS(=O)(=O)N1CCN(c2ccc(Nc3ncc(C(N)=O)c(NC4CC4)n3)cc2)CC1 [Cerdulatinib (hydrochloride)],inactive: 0,inactive: 0,inactive: 0,inactive: 0,inactive: 0,inactive: 0,inactive: 0,inactive: 0,inactive: 0,inactive: 0,inactive: 0,inactive: 0,inactive: 0,inactive: 0,inactive: 0,inactive: 0,inactive: 0,inactive: 0,inactive: 0,inactive: 0,–,–,–,–,–,–,–,–,–,–,–,–,–,–,–,–,–,–,–,–
O=C(Nc1cnn2ccc(N3CCC[C@@H]3c3cc(F)ccc3F)nc12)N1CC[C@H](O)C1 [Larotrectinib sulfate],inactive: 0,inactive: 0,inactive: 0,inactive: 0,inactive: 0,inactive: 0,inactive: 0,inactive: 0,inactive: 0,inactive: 0,inactive: 0,inactive: 0,inactive: 0,inactive: 0,inactive: 0,inactive: 0,inactive: 0,inactive: 0,inactive: 0,inactive: 0,–,–,–,–,–,–,–,–,–,–,–,–,–,–,–,–,–,–,–,–
COc1cc2nccc(Oc3ccc(NC(=O)C4(C(=O)Nc5ccc(F)cc5)CC4)cc3)c2cc1OC [Cabozantinib (S-malate)],inactive: 0,inactive: 0,inactive: 0,inactive: 0,inactive: 0,inactive: 0,inactive: 0,inactive: 0,inactive: 0,inactive: 0,inactive: 0,inactive: 0,inactive: 0,inactive: 0,inactive: 0,inactive: 0,inactive: 0,inactive: 0,inactive: 0,inactive: 0,–,–,–,–,–,–,–,–,–,–,–,–,–,–,–,–,–,–,–,–
CNC(=O)c1ccc(Nc2ncc(C(F)(F)F)c(NCc3nccnc3N(C)S(C)(=O)=O)n2)cc1 [Defactinib],inactive: 0,inactive: 0,inactive: 0,inactive: 0,inactive: 0,inactive: 0,inactive: 0,inactive: 0,inactive: 0,inactive: 0,inactive: 0,inactive: 0,inactive: 0,inactive: 0,inactive: 0,inactive: 0,inactive: 0,inactive: 0,inactive: 0,inactive: 0,–,–,–,–,–,–,–,–,–,–,–,–,–,–,–,–,–,–,–,–
Cc1cccc(/C=N/Nc2cc(N3CCOCC3)nc(OCCc3ccccn3)n2)c1 [Apilimod (mesylate)],inactive: 0,inactive: 0,inactive: 0,inactive: 0,inactive: 0,inactive: 0,inactive: 0,inactive: 0,inactive: 0,inactive: 0,inactive: 0,inactive: 0,inactive: 0,inactive: 0,inactive: 0,inactive: 0,inactive: 0,inactive: 0,inactive: 0,inactive: 0,–,–,–,–,–,–,–,–,–,–,–,–,–,–,–,–,–,–,–,–
Nc1ncnc2c1c(-c1ccc(Oc3ccccc3)cc1)nn2[C@@H]1CCCNC1,–,–,–,–,–,–,–,–,–,–,–,–,–,–,–,–,–,–,–,–,inactive: 0,inactive: 0,inactive: 0,inactive: 0,inactive: 0,inactive: 0,inactive: 0,inactive: 0,inactive: 0,inactive: 0,inactive: 0,inactive: 0,inactive: 0,inactive: 0,inactive: 0,inactive: 0,inactive: 0,inactive: 0,inactive: 0,inactive: 0
Cc1cc(Nc2ncc(Cl)c(Nc3ccccc3S(=O)(=O)C(C)C)n2)c(OC(C)C)cc1C1CCNCC1 [Ceritinib dihydrochloride],–,–,–,–,–,–,–,–,–,–,–,–,–,–,–,–,–,–,–,–,inactive: 0,inactive: 0,inactive: 0,inactive: 0,inactive: 0,inactive: 0,inactive: 0,inactive: 0,inactive: 0,inactive: 0,inactive: 0,inactive: 0,inactive: 0,inactive: 0,inactive: 0,inactive: 0,inactive: 0,inactive: 0,inactive: 0,inactive: 0
Oc1cccc(-c2nc(N3CCOCC3)c3oc4ncccc4c3n2)c1,inactive: 0,inactive: 0,inactive: 0,inactive: 0,inactive: 0,inactive: 0,inactive: 0,inactive: 0,inactive: 0,inactive: 0,inactive: 0,inactive: 0,inactive: 0,inactive: 0,inactive: 0,inactive: 0,inactive: 0,inactive: 0,inactive: 0,inactive: 0,–,–,–,–,–,–,–,–,–,–,–,–,–,–,–,–,–,–,–,–
COCCOc1cc(F)c2c(Nc3ccc(NC(=O)Cn4cc(C(C)C)nn4)cc3)ncnc2c1 [AZD3229 Tosylate],inactive: 0,inactive: 0,inactive: 0,inactive: 0,inactive: 0,inactive: 0,inactive: 0,inactive: 0,inactive: 0,inactive: 0,inactive: 0,inactive: 0,inactive: 0,inactive: 0,inactive: 0,inactive: 0,inactive: 0,inactive: 0,inactive: 0,inactive: 0,–,–,–,–,–,–,–,–,–,–,–,–,–,–,–,–,–,–,–,–
O=C(Nc1cnn2ccc(N3CCC[C@@H]3c3cc(F)ccc3F)nc12)N1CC[C@H](O)C1 [Larotrectinib],inactive: 0,inactive: 0,inactive: 0,inactive: 0,inactive: 0,inactive: 0,inactive: 0,inactive: 0,inactive: 0,inactive: 0,inactive: 0,inactive: 0,inactive: 0,inactive: 0,inactive: 0,inactive: 0,inactive: 0,inactive: 0,inactive: 0,inactive: 0,–,–,–,–,–,–,–,–,–,–,–,–,–,–,–,–,–,–,–,–
C=CC(=O)Nc1cc2c(Nc3ccc(F)c(Cl)c3)ncnc2cc1C#CC(C)(C)N1CCN(C)CC1 [AV-412 (free base)],–,–,–,–,–,–,–,–,–,–,–,–,–,–,–,–,–,–,–,–,inactive: 0,inactive: 0,inactive: 0,inactive: 0,inactive: 0,inactive: 0,inactive: 0,inactive: 0,active: 1,inactive: 0,inactive: 0,inactive: 0,inactive: 0,inactive: 0,inactive: 0,inactive: 0,inactive: 0,inactive: 0,inactive: 0,inactive: 0
COc1ccc(S(=O)(=O)Nc2ccccc2CN(C)C/C=C/c2ccc(Cl)cc2)cc1 [KN-92 (phosphate)],–,–,–,–,–,–,–,–,–,–,–,–,–,–,–,–,–,–,–,–,inactive: 0,inactive: 0,inactive: 0,inactive: 0,inactive: 0,inactive: 0,inactive: 0,inactive: 0,inactive: 0,inactive: 0,inactive: 0,inactive: 0,inactive: 0,inactive: 0,inactive: 0,inactive: 0,inactive: 0,inactive: 0,inactive: 0,inactive: 0
O=C(O)c1ccc2c(c1)nc(Nc1cccc(Cl)c1)c1ccncc12 [Silmitasertib],inactive: 0,inactive: 0,inactive: 0,inactive: 0,inactive: 0,inactive: 0,inactive: 0,inactive: 0,inactive: 0,inactive: 0,inactive: 0,inactive: 0,inactive: 0,inactive: 0,inactive: 0,inactive: 0,inactive: 0,inactive: 0,inactive: 0,inactive: 0,–,–,–,–,–,–,–,–,–,–,–,–,–,–,–,–,–,–,–,–
CNC(=O)c1ccc(Nc2ncc(C(F)(F)F)c(NCc3nccnc3N(C)S(C)(=O)=O)n2)cc1 [Defactinib (hydrochloride)],inactive: 0,inactive: 0,inactive: 0,inactive: 0,inactive: 0,inactive: 0,inactive: 0,inactive: 0,inactive: 0,inactive: 0,inactive: 0,inactive: 0,inactive: 0,inactive: 0,inactive: 0,inactive: 0,inactive: 0,inactive: 0,inactive: 0,inactive: 0,–,–,–,–,–,–,–,–,–,–,–,–,–,–,–,–,–,–,–,–
COc1ccc2c(c1)C(c1ccc(F)cc1)=C(CN1CCCC1)CO2,inactive: 0,inactive: 0,inactive: 0,inactive: 0,inactive: 0,inactive: 0,inactive: 0,inactive: 0,inactive: 0,inactive: 0,inactive: 0,inactive: 0,inactive: 0,inactive: 0,inactive: 0,inactive: 0,inactive: 0,inactive: 0,inactive: 0,inactive: 0,–,–,–,–,–,–,–,–,–,–,–,–,–,–,–,–,–,–,–,–

# Just kinase-Nluc reporter destabilization hit call (FGFR1; 2.5 µM), for some of the entries so far:
SMILES,kinase-Nluc reporter destabilization hit call (FGFR1; 2.5 µM)
Nc1ncnc2c1c(-c1ccc(Oc3ccccc3)cc1)nn2[C@@H]1CCCNC1,inactive: 0
Cc1cc(Nc2ncc(Cl)c(Nc3ccccc3S(=O)(=O)C(C)C)n2)c(OC(C)C)cc1C1CCNCC1 [Ceritinib dihydrochloride],inactive: 0
